Measurements: patent publication US8609708B2 (Human BioMolecular Research Institute, priority 2003, dated 2013)
For at least one compound, name, drawing or mass did not settle the structure.

Sequences of proteins named here, by UniProt entry; tags and fusion partners are left off. Residues count along the entry.
UniProt P58154, 20-229 limits assumed: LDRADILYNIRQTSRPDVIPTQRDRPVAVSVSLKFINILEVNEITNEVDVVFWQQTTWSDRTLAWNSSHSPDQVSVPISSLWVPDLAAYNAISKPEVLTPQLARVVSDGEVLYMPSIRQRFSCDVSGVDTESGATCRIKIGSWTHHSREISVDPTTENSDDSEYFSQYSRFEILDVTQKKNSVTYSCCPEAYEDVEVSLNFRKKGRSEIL

Biological target: Ach binding protein (AchBP) (Lymnaea stagnalis (Great pond snail) (Helix stagnalis), UniProt P58154)
Conditions: for binding to the AchBP (in words): fluorescence quenching; for AchBP: intrinsic fluorescence quenching, 20 nM AchBP

| SMILES | binding to the AchBP (in words) | AchBP |
| --- | --- | --- |
| c1cc(-c2cncc(-c3ccsc3)c2)cs1 [Compound 55] | very potent |  |
| CCC1CCC(c2cccnc2)O1 (centres unmarked) [Compound 44] | non-binders | − |
| c1cncc(-c2cccs2)c1 [Compound 33, 3-(Pyridin-3-yl)quinoline] | modest binding avidity | + |
